# For part of these data: For at least one compound, name, drawing or mass did not settle the structure. Some entries share one result that the patent states for a list of compounds.
# How the values were obtained:
# [1] = system: TNF-α; conditions: compared with thalidomide; Teo, et al. (2005); cited from earlier work
# [2] = system: MAP; test: Growth inhibition of MAP (strain not stated or MAP strains in general); conditions: MAP strains in general
structure (smiles),measurement,setting,value
Nc1cccc2c1CN(C1CCC(=O)NC1=O)C2=O (stereo not drawn) [lenalidomide],potency in inhibiting TNF-α relative to thalidomide,[1],at least 2000 times
Nc1cccc2c1C(=O)N(C1CCC(=O)NC1=O)C2=O (stereo not drawn) [CC-4047],potency in inhibiting TNF-α relative to thalidomide,[1],at least 2000 times
"CO[C@H]1C[C@@H]2CC[C@@H](C)[C@@](O)(O2)C(=O)C(=O)N2CCCC[C@H]2C(=O)O[C@H]([C@H](C)C[C@@H]2CC[C@@H](O)[C@H](OC)C2)CC(=O)[C@H](C)/C=C(\C)[C@@H](O)[C@@H](OC)C(=O)[C@H](C)C[C@H](C)/C=C/C=C/C=C/1C [Rapamycin, sirolimus (rapamycin)]","effect on growth of MAP, in words",[2],the second most effective “immunosuppressant” studied

# From US20130101615A1, “METHODS FOR PREVENTING OR TREATING A DISEASE OR CONDITION ASSOCIATED WITH MYCOBACTERIUM AVIUM SUBSPECIES PARATUBERCULOSIS” (priority 2005, published 2013)
